From article doi:10.1101/2025.06.18.660436
These are yes or no findings as the source states them, for the method shown. Binding seen in cells or lysates may run through a third protein. These calls come from enrichment with a bait or labelling near it, and not all partners need be listed.

Sequences of proteins named here, by UniProt entry; tags and fusion partners are left off.
UniProt Q16665, whole entry: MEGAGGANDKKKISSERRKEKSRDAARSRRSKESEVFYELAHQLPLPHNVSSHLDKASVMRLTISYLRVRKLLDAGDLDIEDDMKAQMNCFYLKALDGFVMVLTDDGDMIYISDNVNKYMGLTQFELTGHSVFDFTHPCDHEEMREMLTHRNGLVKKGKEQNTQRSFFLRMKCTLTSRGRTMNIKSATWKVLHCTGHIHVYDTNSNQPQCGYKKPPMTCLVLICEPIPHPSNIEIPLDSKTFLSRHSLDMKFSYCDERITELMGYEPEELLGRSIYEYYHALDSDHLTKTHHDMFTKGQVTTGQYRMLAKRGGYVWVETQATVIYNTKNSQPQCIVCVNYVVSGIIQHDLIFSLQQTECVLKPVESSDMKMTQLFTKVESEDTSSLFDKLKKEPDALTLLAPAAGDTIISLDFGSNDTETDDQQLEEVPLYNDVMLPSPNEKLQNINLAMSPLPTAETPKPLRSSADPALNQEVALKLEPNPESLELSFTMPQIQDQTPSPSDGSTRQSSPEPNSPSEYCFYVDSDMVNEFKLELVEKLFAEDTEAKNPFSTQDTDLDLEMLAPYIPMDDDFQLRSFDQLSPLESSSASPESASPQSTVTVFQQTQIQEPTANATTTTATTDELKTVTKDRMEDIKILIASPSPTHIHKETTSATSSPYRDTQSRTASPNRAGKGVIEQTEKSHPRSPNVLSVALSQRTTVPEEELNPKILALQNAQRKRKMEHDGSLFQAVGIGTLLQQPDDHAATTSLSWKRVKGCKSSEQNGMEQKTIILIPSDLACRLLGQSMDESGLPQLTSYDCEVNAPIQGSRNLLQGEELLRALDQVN

Target: HIF-1α fused to the biotin ligase BioID2 (UniProt Q16665)
Assay: proximity labelling

B1: UBFD1 (endogenous) (protein, UniProt O14562 1-309)
chain: MAAAGAPDGMEEPGMDTEAETVATEAPARPVNCLEAEAAAGAAAEDSGAARGSLQPAPAQPPGDPAAQASVSNGEDAGGGAGRELVDLKIIWNKTKHDVKFPLDSTGSELKQKIHSITGLPPAMQKVMYKGLVPEDKTLREIKVTSGAKIMVVGSTINDVLAVNTPKDAAQQDAKAEENKKEPLCRQKQHRKVLDKGKPEDVMPSVKGAQERLPTVPLSGMYNKSGGKVRLTFKLEQDQLWIGTKERTEKLPMGSIKNVVSEPIEGHEDYHMMAFQLGPTEASYYWVYWVPTQYVDAIKDTVLGKWQYF
With B1 the binding was “binds”.
